Assay results taken from patent US20250145710A1.
These are yes or no findings as the source states them, for the method shown. Some binding calls cover weakened binding; strength is not graded here.

Protein sequences, listed by entry. Tags and fused reporters are not part of them.
UniProt P56747: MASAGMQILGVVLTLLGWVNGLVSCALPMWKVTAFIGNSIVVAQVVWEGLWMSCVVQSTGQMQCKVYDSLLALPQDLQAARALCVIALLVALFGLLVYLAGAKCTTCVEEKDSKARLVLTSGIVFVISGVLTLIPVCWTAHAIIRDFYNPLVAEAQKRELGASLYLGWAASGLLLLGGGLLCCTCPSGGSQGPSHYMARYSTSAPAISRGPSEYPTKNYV

Target: human CLDN6 (human) (UniProt P56747)
Experiment: flow cytometry on a CLDN negative parental cell line transfected with CLDN6, CLDN4, CLDN3 or CLDN9 (FIG. 11A)

B1: IM271-1HEP antibody (antibody, V domains shown)
VH: EVQLLESGGGLVQPGGSLRLSCAASGFTFSSYAMNWVRQAPGKGLEWVAGISSSGRYTGYADSVKGRFTISRDNSKNTLYLQMNSLRAEDTAVYYCAKSVGSGVSWSGYVATSLDAWGQGTLVTVSS
VL: SYELTQPPSVSVSPGQTARITCSAGSGLYGWYQQKPGQAPVLVIYGTNKRPSGIPERFSGSSSGTTVTLTISGVQAEDEADYYCGSADSSTNAGIFGGGTKLTVL
Q: For B1, which binding is on record?
A: binds
